Data taken from the supplement of paper PMC8551327.
Where a name gives a salt, the structure may show the parent alone. The list shows a part of the results. Cut-off read from the data, not from the text of the source: active = 1.25 or more and inactive = the rest. Single values are uncertain, as repeats are few or missing.

test system: Kcc2-LUC knock-in mouse primary cortical neurons (Kcc2 promoter reporter); assay: Kcc2 promoter-driven luciferase activity relative to vehicle control (fold of vehicle (ratio)); higher = stronger Kcc2 promoter activation (Kcc2 expression enhancer); conditions: 100 nM; 48 h

Row | Structure (SMILES) | Kcc2 promoter-driven luciferase activity
1 | CC(=O)NC(CC(C)C)C(=O)NC(Cc1ccccc1)C(=O)CCl (stereo not given) | inactive: 0.73
2 | Cc1c2oc3c(C)ccc(C(=O)N[C@@H]4C(=O)N[C@H](C(C)C)C(=O)N5CCC[C@H]5C(=O)N(C)CC(=O)N(C)[C@@H](C(C)C)C(=O)O[C@@H]4C)c3nc-2c(C(=O)N[C@@H]2C(=O)N[C@H](C(C)C)C(=O)N3CCC[C@H]3C(=O)N(C)CC(=O)N(C)[C@@H](C(C)C)C(=O)O[C@@H]2C)c(N)c1=O [Actinomycin D] | inactive: 0.02
3 | O=C(OCC12CC3CC(CC(C3)C1)C2)c1ccc(NCc2cc(O)ccc2O)cc1 | active: 1.41
4 | N#CC(c1ccccc1)N(CCCCCCN(C(=O)c1ccccc1)C(C#N)c1ccccc1)C(=O)c1ccccc1 (stereo not given) | inactive: 1.06
5 | CCN1C=C/C(=C\C=C\c2cc[n+](CC)c3ccccc23)c2ccccc21 [Cryptocyanine] | inactive: 0.73
6 | CC(C)=CC(=O)OC1C2C(C)C(=O)OC2C(O)C(C)C2C=CC(=O)C21C (stereo not given) [Fastigillin B] | inactive: 0.55
7 | NC(N)=NCCCS(=O)(=O)Nc1ccc(Nc2c3ccccc3nc3cc([N+](=O)[O-])ccc23)cc1 [1-Propanesulfonamide, dihydrochloride] | inactive: 1
8 | C[C@H]1CC[C@@H](C(C)(C)O)CC2=C1CC[C@@H]2C [Guaiol] | inactive: 0.914
9 | Cc1ccc(Nc2nc(C)c(C(/C=C/c3ccc(/C=C/C(=N\NC(=O)C[n+]4ccccc4)c4sc(Nc5ccc(C)cc5[N+](=O)[O-])nc4C)cc3)=N/NC(=O)C[n+]3ccccc3)s2)c([N+](=O)[O-])c1 | active: 1.28
10 | C=C1C(=O)O[C@@H]2C[C@@]3(C)CCC[C@H](C)C3=C[C@H]12 [Helenin] | inactive: 0.52
11 | Nc1ncnc2c1nnn2[C@@H]1O[C@H](CO)[C@@H](O)[C@H]1O [8-Azadenosine] | inactive: 0.72
12 | O=C(C=C1SCCS1)/C=C\c1ccc(Cl)cc1 | inactive: 0.883
13 | COc1ccc(NC(=O)C(=O)/C=C(\O)c2ccccc2)cc1 [2-Hydroxy-N-(4-methoxyphenyl)-4-oxo-4-phenyl-2-butenamide] | active: 3.81
14 | Cc1c2ccncc2cc2c1[nH]c1ccccc12 [5-Methyl-6H-pyrido[4,3-b]carbazole] | inactive: 1.07
15 | N=N/C(=C\c1c(O)[nH]c2ccccc12)c1ccccc1 | inactive: 0.9
16 | O=[N+]([O-])c1cccc2c(N=Nc3ccc4ccccc4c3O)c(O)cc(S(=O)(=O)O)c12 | inactive: 0.79
17 | CC1(c2cccc3ccccc23)OC(=O)c2ccccc21 (stereo not given) [3-Methyl-3-(1-naphthyl)-2-benzofuran-1(3H)-one] | inactive: 0.56
18 | C=C1C(=O)O[C@H]2[C@H]1CC/C(C)=C/CC[C@@]1(C)O[C@@H]21 [Parthenolide] | inactive: 0.51
19 | O=C(c1ccccc1)C1OC12C(=O)Nc1c(Cl)cc(Cl)cc12 (stereo not given) | inactive: 0.72
20 | CCCc1c(Cl)nc(Cl)nc1Cl [2,4,6-Trichloro-5-propylpyrimidine] | inactive: 1.06
21 | CCCCCCCC/C=C\CCCCCCCC(=O)O [Oleic acid] | active: 1.42
22 | CN(C)CCOC1(Cc2ccc(Cl)cc2Cl)CCC(C(C)(C)C)CC1 (stereo not given) | inactive: 0.865
23 | CN(C)CCOc1ccc(I)cc1Cc1ccccc1 | inactive: 0.88
24 | CC/C(=C(\c1ccccc1)c1ccc(OCCN(C)C)cc1)c1ccccc1 [Tamoxifen Citrate] | active: 1.25
25 | O/N=C(\CC(O)(C(F)(F)F)C(F)(F)F)c1cccc(Cl)c1 | inactive: 0.8
26 | Cc1cc(Cl)ccc1N1C(=O)C(=O)C(c2nc3ccccc3o2)C(=O)C1=O | inactive: 1.07
27 | O=c1[nH]c(=O)n(C2OC(CO)C(O)C2O)cc1F (stereo not given) [5-Fluorouracil arabinoside] | inactive: 0.78
28 | C=C(C)[C@@H]1CC[C@]2(CO)CC[C@]3(C)[C@H](CC[C@@H]4[C@@]5(C)CC[C@H](O)C(C)(C)[C@@H]5CC[C@]43C)[C@@H]12 [Betulinic alcohol] | inactive: 0.26
29 | CCN(CC)c1ccc2cc3ccc(=[N+](CC)CC)cc-3oc2c1 [Pyronine B] | inactive: 0.8
30 | COc1ccc(/C=C/C(=O)Oc2cc(O)cc(O)c2)cc1 [(3,5-Dihydroxyphenyl) (E)-3-(4-methoxyphenyl)prop-2-enoate] | inactive: 1.09

A second format for 2 compounds above:
Row,Structure (SMILES),Kcc2 promoter-driven luciferase activity
12,O=C(C=C1SCCS1)/C=C\c1ccc(Cl)cc1,inactive: 0.883
14,"Cc1c2ccncc2cc2c1[nH]c1ccccc12 [5-Methyl-6H-pyrido[4,3-b]carbazole]",inactive: 1.07
